Substitutions are numbered along the chain they refer to. These are yes or no findings as the source states them, for the method shown. A result given as binding can be weak or reduced; the word gives no strength.
B1: C56-2 (antibody, human IgG1, kappa, V domains shown)
VH: EVQLVESGGGLVKPGGSLKLSCAASGFTFSDYALSWVRQTPEKRLEWVATIRDGGSYTYYSDNEKGRFTISRDNAKNNLYLQMSHLRSEDTAMYYCTRDQVNRGWFTYWGQGTLVTVSA
VL: QVILTQSPAIMSASLGERVTMTCSASSSVSSSYFHWFQQKPGSSPKLWIYSTSNLASGVPPRFSGSGSGTSYSLTISSMEAEDAATYYCHQHHRSPLTFGAGTKLELKR
B2: C59 (antibody, human IgG1, kappa, V domains shown)
VH: B1 VH with D31G, R87K
VL: B1 VL
B3: C115 (antibody, human IgG1, kappa, V domains shown)
VH: EVQLQQSGAELVKPGASVKLSCTASGFNIEDTYIHWVKRRPEQGLEWIGGIDPAIGNTLYASKFQDMATITADTSSSTAYMQLSSLTSGDTAVYYCARERVYSNTLYYAMDYWGQGTSVTVSS
VL: DIVLTQSPASLVVSLGQRATISCRASKSVSISGYSYMHWYQQKPGQPPKLLIYLASNLESGVPARFSGSGSGTDFTLNIHPVEAEDAATYYCQHSRELPPTFGGGTNLEIKR
B4: C45 (antibody, human IgG1, kappa, V domains shown)
VH: QVHLQQSGPDLVKPGVSVKISCKASGYTFTDYYINWVKQRPGQGLEWIGWIFPGSGTTYYNEKFKGKATLTVDKSSSTAYMLLSSLTSEDSAVYFCARDGGLRGPFDYWGQGTTLTVSS
VL: DIQMTQSPSSLSASLGGKVTITCKANQDINKYIAWYQYKPGKGPRLLIHYTSTLQPDIPSRFSGSGSGRDFSFSISNLEPEDIATYYCLQYDYLYTFGGGTKLEIKR
B5: C55 (antibody, human IgG1, kappa, V domains shown)
VH: EVQLQQSGPELVKPGASVKISCKASGYTFTDYYMSWVKQSHGKSLEWIGDVNPNNGDTSYNQKFKGKATLTVDKSSSTAYMELRSLTSEDSAVYYCAASGLPYVLMDYWGQGTSVTVSS
VL: DIQMTQSPASLSASVGETVTITCRASENINSYLAWYQQKQGKSPQLLVYNTKTLTEDVPSRFSGSGSGTQFSLKINSLQPEDFGSYYCQHHYGTPLTFGGGTKLELKR
B6: C67 (antibody, human IgG1, kappa, V domains shown)
VH: EAQLQQSGPELVKPGASVKISCKASGYTFTDYYMNWVKQSHGKSLDWIGDINPDNGGSTYNQKFKGKATLTVDKSSSTAYMELRSLTSEDSAVYYCSASGPPYVLLDYWGQGTSVIVSS
VL: B5 VL with R24Q, A25T, N30Y, K52Q, T55A, D57G, G66R, T69A, T94V, G100A
B7: C114 (antibody, human IgG1, kappa, V domains shown)
VH: QVQLQQSGAELVRPGTSVKMSCKAAGYTFTNSWINWVKQRPGHGLEWIGDIYPGNTFPNYNEKFKGKATLTADTSSSTAYMQLSSLTSEDSAVYYCTGGYFDVWGTGTTVTVSS
VL: DIVMTQSPSSLSVSAGEKVTMSCKSSQSLLNSGNQKNFLAWYQQKPGQPPKLLIFGASTRQSGVPDRFTGSGSGTDFTLTISSVQAEDLAVYYCQNDHSYPYTFGGGTKLEMKR
B8: C33 (antibody, human IgG1, kappa, V domains shown)
VH: QVQLQQSGPELVKPGASVKISCKASGYTFTDYYINWVKQRPGQGLEWIGWIFPGSGSTYYNEKFKGKATPTVDKYSSTAYMLLSSLTSEDSAVYFCAREDYFDRGDCWGQGTSVTVSS
VL: QIVLTQSPAIMSASPGEKVTMTCSASSSINYMHWYQQKPGTSPKRWIYDTSKLASGVPARFSGSGSGTSYSLTISSMEAEDAATYYCHQRSSYPFTFGSGTKLEIKR
B9: C51 (antibody, human IgG1, kappa, V domains shown)
VH: QVQLQQSGAELVRPGASVTLSCKASGYTFTDYEMHWVKQTPVHGLEWIGAIDPETGGTAYNQKFKGKAILTADKSSSTAYMELRSLTSEDSAVYYCTRWITTVVATLYYFDYWGQGTTLTVSS
VL: DIVMTQSQKFMSTSVGDRVSITCKASQNVRTAVAWYQQKPGQSPKALIYLASNRHTGVPDRFTGSGSGTDFTLTISNVQSEDLADYFCLQHWNYPLTFGAGTKLELKR
B10: C113 (antibody, human IgG1, kappa, V domains shown)
VH: EVQLQQSGPELVKPGSSVKISCKASGYTFTDYNLDWMKQSHGSSLEWIGAMSPNNGATSYNQKFKGKATLTVDKSSSTAYMELRSLTSEDSAVYYCARWDSNSWYFDVWGTGTTVTVSS
VL: B9 VL with N28I, A34D, P40S, L50S, N53T, S76D, D85E, L96Y, A100G, L106I
B11: C105 (antibody, human IgG1, kappa, V domains shown)
VH: EVQLQQSGPELVKPGSSMKISCKASGYTFTDYSMDWVKQSHGKSLEWIGAINPNNGGTSYNQKFKDKATLTVDRSSSTAYMELRSLTSEDSAVYYCARWDSDYWYFDVWATGTTVTVSS
VL: B9 VL with A34D, L50S, L96Y, A100G, L106I
B12: C101 (antibody, human IgG1, kappa, V domains shown)
VH: EVQLQQSGPELVKPGSSVKISCEASGFTFADYNVDWVKQSHGKSLEWIGAINPNDGGTSYNQKFEGKATLTVDKSSTTAYMELRSLTSEDSAVYYCARWVNNDWYFDVWGTGTTVTVSS
VL: B9 VL with T31S, A34D, A46T, Y49H, L50S, V78I, L96Y, A100G, L106V
B13: C111 (antibody, human IgG1, kappa, V domains shown)
VH: QVQLQQSGPELARPGASVKLSCKASGYTLTSHGISWVKQRTGQGLEWIGEIYPGSESPYYSEKFKGKATLTADKSSNIAYMQLSSLTSEDSAVYFCARSDYSDYWAMDYWGQGTSVTVSS
VL: B9 VL with F10C, T31S, A46T, S76T, L96W, A100G, K103E, L106I
B14: C61 (antibody, human IgG1, kappa, V domains shown)
VH: DVQLQESGPGLVKPSQSLSLTCSVTGYSITSNYYWNWIRQFPGNNLEWMGYISSDGTNNYNPSLRNRISITRDTSKNQFFLKLNSVTTEDTATYYCARGLRYGPWGQGTTLTVSS
VL: QLILTQSSSASFSLGASAKLTCTLSSQHSTYTIEWYQQQPLKAPKYVMEVKNDGSHRTGDGIPDRFSGSSSGADRYLSISNIQPEDEAIYICGVGDINNYIFGGGTKVTVLR
B15: C129 (antibody, human IgG1, kappa, V domains shown)
VH: QVQLQQSGAELMTPGSSVKLSCKATGYTFTDYWIEWVKKRPGHGLEWIGEILPGYISTNYNEKFKDKATFTADTSSNTTYMQLSSLTSEDSAVYYCVLIVTTYYYFMDYWGQGTSVTVSS
VL: QIVLTQSPAIMSASPGEKVTITCSASSSVTYMHWFQQKPGTSPKLWIYSTSNLASGVPVRFSGSGSGTSYSLTISRMEAEDAATYYCQQRSSYPWTFGGGTKLEIKR
B16: C62 (antibody, human IgG1, kappa, V domains shown)
VH: EVMLVESGGGLVKPGGSLKLSCAASGFSFSSYSMSWVRQTPEKRLECVATIGGVGGNTYYPDSVKGRFSISRDNAKNTLYLQMSSLRSEDTALYYCARHEDYYYYAMDYWGQGTSVTVSS
VL: QIVLTQSPAIMSASPGEKVTMTCSANSTVSYIYWYQQKPGSSPRLLIYDTSNLASGVPVRFSGSGSGTSYYLTISRMEAEDAATYYCQQWSSFPFTFGSGTKLEIKR
B17: C71 (antibody, human IgG1, kappa, V domains shown)
VH: EVILVESGGGLVKPGGSRKLSCAASGFTFSSYFMSWVRQTPEKRLEWVATISGGGDNTYYPDSVKGRFTISRDNAKNTLYLQMSSLRSEDTALYYCARHEDYEWYAMDYWGQGTSVTVSS
VL: B16 VL with A13T, N26S, T28S, Y71S, S91T, F93Y, F95L, S99A, I105L
B18: C64 (antibody, human IgG1, kappa, V domains shown)
VH: B17 VH with I3M, G10D, R18L, N57K, P61L, S63I, V64L, E103A
VL: B16 VL with N26S, T28S, S30N, Y71S, F93Y, F95L, S99A, I105L
B19: C63 (antibody, human IgG1, kappa, V domains shown)
VH: B17 VH with I3M, R18L, T28I, F33I, S52R, D56G, P61L, T69I, T78N, Y109N
VL: B16 VL with M21L, N26R, T28S, I32M, R44K, Y71S, F93Y, F95L, S99A, I105L
B20: C57 (antibody, human IgG1, kappa, V domains shown)
VH: EVQLQQSGPVLVKPGASVKMSCKASGYIFTDYYMHWVKQSHGKSLEWIGIINPYNGDTSYNQKFKDKATLTVDKSSSTAYMELNSLTSEDSAVYYCARDSSNVGNAMDYWGQGTSVTVSS
VL: DIQMTQTTSSLSASLGDRVTISCRASQDISNYLNWYLQKPDGTIKLLIYYSSRLHSGVPSRFSGSGSGTDYSLTISNLEQEDIATYFCQQGYTLPRTFGGGTKLEIIR
B21: C69 (antibody, human IgG1, kappa, V domains shown)
VH: B20 VH with I28R, F29L, D57G, D66G, E89D, A106D, T117S
VL: B20 VL with I44V, S76N, Y92N, I107R

Sequences of proteins named here, by UniProt entry; tags and fusion partners are left off. A change or cut given only in a name is not applied to a line headed by its entry.
UniProt Q6DKI7: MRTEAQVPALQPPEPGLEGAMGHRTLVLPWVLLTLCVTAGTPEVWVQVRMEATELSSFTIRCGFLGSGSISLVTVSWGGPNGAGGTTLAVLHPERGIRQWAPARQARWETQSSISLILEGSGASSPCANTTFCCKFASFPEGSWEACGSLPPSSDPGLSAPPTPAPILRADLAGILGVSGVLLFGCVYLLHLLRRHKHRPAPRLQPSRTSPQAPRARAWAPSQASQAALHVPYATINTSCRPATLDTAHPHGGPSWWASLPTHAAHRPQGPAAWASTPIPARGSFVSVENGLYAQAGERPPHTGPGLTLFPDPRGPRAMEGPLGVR

Target: human CD112R antigen protein huCD112R-His (Acro Biosysterm, PVG-H52H4) (human) (UniProt Q6DKI7)
Experiment: ELISA, huCD112R-His coated on plate

| binding | Binder |
| --- | --- |
| binds | B1 |
| binds | B2 |
| binds | B3 |
| binds | B4 |
| binds | B5 |
| binds | B6 |
| binds | B7 |
| binds | B8 |
| binds | B9 |
| binds | B10 |
| binds | B11 |
| binds | B12 |
| binds | B13 |
| binds | B14 |
| binds | B15 |
| binds | B16 |
| binds | B17 |
| binds | B18 |
| binds | B19 |
| binds | B20 |
| binds | B21 |

Target: monkey antigen protein (monkey CD112R, Uniprot ID: A0A2K5WVV8) (monkey)
Experiment: ELISA, monkey antigen protein

| binding | Binder |
| --- | --- |
| binds | B1 |
| binds | B2 |
| binds | B3 |
| binds | B4 |
| binds | B5 |
| binds | B6 |
| binds | B7 |
| binds | B9 |
| binds | B10 |
| binds | B11 |
| binds | B12 |
| binds | B13 |
| binds | B16 |
| binds | B17 |
| binds | B18 |
| binds | B19 |
| binds | B20 |
| binds | B21 |

From EP4644419A1
